# From article PMC12548414
# Screen size: about 1,600 compounds; about 20 (1%) showed an effect of 50% or more. This is one part of the list.
# System: T1, E. coli pLC1021 (luc-trpAt trans-translation reporter)
# T1 construct: pLC1021 luc-trpAt reporter strain
# Design: species or system Escherichia coli pLC1021; luc-trpAt non-stop luciferase reporter; luminescence rises when trans-translation is inhibited; normalized to KKL-35 and DMSO
# Settings: reporter signal, KKL-35 = 100%; rise means trans-translation inhibition; 2 h, 20 µM
# Method in brief: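 Luminescence (560 nm, 10 min after Bright-Glo) reports luciferase that escapes trans-translation tagging, measured after 2 h room-temperature treatment with 20 µM compound. Each plate was scaled between DMSO (negative) and 20 µM KKL-35 (positive) controls. Compounds scoring one standard deviation above the median counted as positive; at least two biological repeats.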
row,SMILES,% activation
1,CCn1nnc(NC(=O)COc2ccc(C3CCCCC3)cc2)n1 [KKL-0733],8%
2,Cn1cc(CNCc2ccc3c(c2)OCO3)c(-c2ccc(C3CCCCC3)cc2)n1 [KKL-0640],0%
3,c1cnc2c(c1)ccc1cccnc12 [KKL-0825],8%
4,COc1ccc(C(C)(C)C)cc1N=C(S)Nc1ccc(Cl)c(Cl)c1 [KKL-1535],0%
5,COc1ccc(C(=O)Oc2cccc3cccnc23)cc1[N+](=O)[O-] [KKL-1648],0%
6,COc1ccccc1NC(=O)CSc1nc2cc3ccccc3cc2[nH]1 [KKL-0600],1%
7,O=C(NCc1cnn(-c2cccc(F)c2)c1)c1cc(COc2cccc3cccnc23)on1 [KKL-0634],2%
8,CCOC(=O)CSc1ccc(-c2nc3ccccc3[nH]2)cn1 [KKL-1646],0%
9,CC(C)(C)/C(O)=C\C=Nc1ccccc1O [KKL-0979],0%
10,O=C(Oc1ccc(F)cc1)c1ccc(Oc2ccc([N+](=O)[O-])cc2)cc1 [KKL-0916],0%
11,Clc1ccc(SCCCn2ccnc2)cc1 [KKL-1316],1%
12,COc1ccc(-n2cc(CNCCCn3ccnc3)c(-c3cccc(F)c3)n2)cc1 [KKL-1129],2%
13,Clc1ccc(COC(Cn2ccnc2)c2ccc(Cl)cc2Cl)c(Cl)c1 (stereo not drawn) [KKL-0381],0%
14,Nc1ncnc(Oc2cccc3cccnc23)c1[N+](=O)[O-] [KKL-0353],0%
15,O=C(NCc1nnc2c3ccccc3c(-c3ccccc3)nn12)c1ccc(Cl)cc1 [KKL-0873],0%
16,CCCCS(=O)(=O)Nc1ccc2cnn(C)c2c1 [KKL-1802],0%
17,Clc1nnc(N2CCCC2)c2ccccc12 [KKL-1738],0%
18,CCc1nnc(NC(=O)c2cc3ccccc3oc2=O)s1 [KKL-1658],0%
19,OC(CN1CCC2(CC1)CC(O)c1cc(Cl)ccc1O2)c1ccc2c(c1)CCC2 (stereo not drawn) [KKL-0706],1%

row,SMILES,% activation
1,COc1ccc(F)c(-c2nc(CN3CCN(c4ncc5ccccc5n4)CC3)c(C)o2)c1 [KKL-0478],3%
2,Cc1cc(N2CCCCC2)nc(N2CCC(O)(Cc3ccccc3)CC2)n1 [KKL-1214],9%
3,Cc1ccccc1OCc1n(CC(=O)OC2CC(C)CCC2C(C)C)c2ccccc2[n+]1C (stereo not drawn) [KKL-0845],0%
4,Cc1ccc(-n2cc(CN3CCN(C(=O)c4ccco4)CC3)c(-c3ccc(F)cc3)n2)cc1 [KKL-1162],0%
5,Clc1cc(Br)ccc1OCCCCn1ccnc1 [KKL-1286],0%
6,Cc1cc([N+](=O)[O-])ccc1NC(=O)CN1C2CCC1CC(NC(=O)NC13CC4CC(CC(C4)C1)C3)C2 (stereo not drawn) [KKL-1619],0%
7,Cc1ccc(-c2ccc(/C=C/C(=O)c3ccco3)o2)cc1 [KKL-0778],0%
8,COc1cc(NC(=O)C(Cl)Cl)c(OC)cc1Cl [KKL-0757],0%
9,O=C(Nc1ccc(N2CCN(C(=O)c3ccccc3)CC2)cc1)c1ccc([N+](=O)[O-])o1 [KKL-0631],0%
10,CCCn1nnnc1NC(=O)c1cccs1 [KKL-1240],13%
11,CC1CCc2nc3sc4c(c3c(N)c2C1)CCCC4 (stereo not drawn) [KKL-1424],0%
12,COc1ccc(N2CCN(Cc3nc(N)nc(Nc4ccc(C)c(Cl)c4)n3)CC2)cc1 [KKL-1030],7%
13,O=C(Nc1cccc(-c2ccco2)c1)C1CCN(C2Cc3ccccc3C2)CC1 [KKL-0457],0%
14,Brc1ccc(C2C=C(c3ccccc3)Nc3ncnn32)cc1 (stereo not drawn) [KKL-1205],1%
15,c1cc(C2CCCCC2)ccc1-c1cnnc(N2CCOCC2)n1 [KKL-1120],0%
16,O=C(Oc1ccc(Cl)c2cccnc12)C12CC3CC(CC(C3)C1)C2 [KKL-0981],8%
17,COc1cccc(OCC(=O)c2ccc(Br)cc2)c1 [KKL-0975],0%
18,O=C(Nc1nc2c(F)cc(F)cc2s1)c1ccccn1 [KKL-0924],0%
19,Brc1ccc(Nc2nc(-c3ccccn3)cs2)cc1 [KKL-1367],0%

row,SMILES,% activation
1,CCCN=C1C(=O)c2ccccc2C(O)=C1N(C(C)=O)c1cccc(F)c1 [KKL-0978],0%
2,CCn1c(NC(=O)c2ccccc2)nc2ccccc21 [KKL-0359],6%
3,CCOC(=O)c1ccc2ncc(C(=O)OCC)c(NCc3cccnc3)c2c1 [KKL-0536],0%
4,Nc1cc(OCc2ccccc2)ccc1Nc1ccccc1 [KKL-1718],0%
5,O=C(Nc1nc(-c2ccccn2)cs1)c1cncn1-c1ccccc1 [KKL-1881],5%
6,CCc1cc(I)ccc1NC(=O)c1ccc([N+](=O)[O-])o1 [KKL-1553],0%
7,CCCCOC(=O)COc1ccc2c(=O)c(Oc3ccc(OCC)cc3)c(C)oc2c1 [KKL-0777],11%
8,FC(F)(F)c1cccc(-n2cc(-c3ccccc3)c3c(NCc4cccnc4)ncnc32)c1 [KKL-1573],0%
9,O=C(NCc1ccc2c(c1)OCO2)c1c(C(F)(F)F)nc2ccccn12 [KKL-1769],0%
10,CC(C)(C)c1ccc(-c2nc(NCc3cccnc3)c3ccccc3n2)cc1 [KKL-0355],1%
11,COC(=O)CSc1nnc(-c2ccc(Cl)cc2)o1 [KKL-0598],0%
12,CC1(C)NC(N)=NC(=N)N1OCCCOc1ccc(Cl)cc1Cl [KKL-1743],18%
13,Cc1cccc(C(=O)NC(=S)N2CCC(C)CC2)c1 [KKL-1430],0%
14,Cc1ccnc(N2C(=O)c3cccc4c([N+](=O)[O-])ccc(c34)C2=O)c1 [KKL-1403],0%
15,Cc1ccc(-n2cc(CN(C)CCn3ccnc3)c(-c3cccc(C)c3)n2)cc1 [KKL-0351],0%
16,COc1ccc(-c2cnnc(NCC(C)Oc3cccnc3)n2)c(OC)c1 (stereo not drawn) [KKL-0520],3%
17,CCc1sc(NC(=O)c2cnc(SC)nc2)nc1-c1ccc(F)cc1 [KKL-0670],5%
18,C=CCN1C(=N)S/C(=C2\C(=O)Nc3ccccc32)C1=O [KKL-0768],1%
19,CSc1ccc(NC(=O)N2CCC(CO)(CCOc3ccccc3)CC2)cc1 [KKL-0652],3%

# Of the compounds above, these contain a thiophene ring, fused or not:
row,SMILES,% activation
10,CCCn1nnnc1NC(=O)c1cccs1 [KKL-1240],13%
11,CC1CCc2nc3sc4c(c3c(N)c2C1)CCCC4 (stereo not drawn) [KKL-1424],0%
